Data reported in publication PMC11653702, “Targeting the SPC25/RIOK1/MYH9 Axis to Overcome Tumor Stemness and Platinum Resistance in Epithelial Ovarian Cancer” (Advanced Science, 2024).
Results are given in words; binding and its absence hold for the method and conditions named. For some of these results: In cells and extracts the contact can be indirect. Some results given as binding are weak or reduced against the parent protein; the word gives no strength. Each block holds one molecule with its values, some of them ahead of it.

Chains of the proteins cited; added tags and fusions are not shown.
UniProt Q9HBM1: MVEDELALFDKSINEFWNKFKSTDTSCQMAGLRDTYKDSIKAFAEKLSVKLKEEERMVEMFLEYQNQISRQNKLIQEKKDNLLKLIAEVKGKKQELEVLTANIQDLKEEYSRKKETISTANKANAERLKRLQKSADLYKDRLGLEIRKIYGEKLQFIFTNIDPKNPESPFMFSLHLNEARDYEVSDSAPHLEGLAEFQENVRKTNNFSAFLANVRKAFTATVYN
UniProt P35579: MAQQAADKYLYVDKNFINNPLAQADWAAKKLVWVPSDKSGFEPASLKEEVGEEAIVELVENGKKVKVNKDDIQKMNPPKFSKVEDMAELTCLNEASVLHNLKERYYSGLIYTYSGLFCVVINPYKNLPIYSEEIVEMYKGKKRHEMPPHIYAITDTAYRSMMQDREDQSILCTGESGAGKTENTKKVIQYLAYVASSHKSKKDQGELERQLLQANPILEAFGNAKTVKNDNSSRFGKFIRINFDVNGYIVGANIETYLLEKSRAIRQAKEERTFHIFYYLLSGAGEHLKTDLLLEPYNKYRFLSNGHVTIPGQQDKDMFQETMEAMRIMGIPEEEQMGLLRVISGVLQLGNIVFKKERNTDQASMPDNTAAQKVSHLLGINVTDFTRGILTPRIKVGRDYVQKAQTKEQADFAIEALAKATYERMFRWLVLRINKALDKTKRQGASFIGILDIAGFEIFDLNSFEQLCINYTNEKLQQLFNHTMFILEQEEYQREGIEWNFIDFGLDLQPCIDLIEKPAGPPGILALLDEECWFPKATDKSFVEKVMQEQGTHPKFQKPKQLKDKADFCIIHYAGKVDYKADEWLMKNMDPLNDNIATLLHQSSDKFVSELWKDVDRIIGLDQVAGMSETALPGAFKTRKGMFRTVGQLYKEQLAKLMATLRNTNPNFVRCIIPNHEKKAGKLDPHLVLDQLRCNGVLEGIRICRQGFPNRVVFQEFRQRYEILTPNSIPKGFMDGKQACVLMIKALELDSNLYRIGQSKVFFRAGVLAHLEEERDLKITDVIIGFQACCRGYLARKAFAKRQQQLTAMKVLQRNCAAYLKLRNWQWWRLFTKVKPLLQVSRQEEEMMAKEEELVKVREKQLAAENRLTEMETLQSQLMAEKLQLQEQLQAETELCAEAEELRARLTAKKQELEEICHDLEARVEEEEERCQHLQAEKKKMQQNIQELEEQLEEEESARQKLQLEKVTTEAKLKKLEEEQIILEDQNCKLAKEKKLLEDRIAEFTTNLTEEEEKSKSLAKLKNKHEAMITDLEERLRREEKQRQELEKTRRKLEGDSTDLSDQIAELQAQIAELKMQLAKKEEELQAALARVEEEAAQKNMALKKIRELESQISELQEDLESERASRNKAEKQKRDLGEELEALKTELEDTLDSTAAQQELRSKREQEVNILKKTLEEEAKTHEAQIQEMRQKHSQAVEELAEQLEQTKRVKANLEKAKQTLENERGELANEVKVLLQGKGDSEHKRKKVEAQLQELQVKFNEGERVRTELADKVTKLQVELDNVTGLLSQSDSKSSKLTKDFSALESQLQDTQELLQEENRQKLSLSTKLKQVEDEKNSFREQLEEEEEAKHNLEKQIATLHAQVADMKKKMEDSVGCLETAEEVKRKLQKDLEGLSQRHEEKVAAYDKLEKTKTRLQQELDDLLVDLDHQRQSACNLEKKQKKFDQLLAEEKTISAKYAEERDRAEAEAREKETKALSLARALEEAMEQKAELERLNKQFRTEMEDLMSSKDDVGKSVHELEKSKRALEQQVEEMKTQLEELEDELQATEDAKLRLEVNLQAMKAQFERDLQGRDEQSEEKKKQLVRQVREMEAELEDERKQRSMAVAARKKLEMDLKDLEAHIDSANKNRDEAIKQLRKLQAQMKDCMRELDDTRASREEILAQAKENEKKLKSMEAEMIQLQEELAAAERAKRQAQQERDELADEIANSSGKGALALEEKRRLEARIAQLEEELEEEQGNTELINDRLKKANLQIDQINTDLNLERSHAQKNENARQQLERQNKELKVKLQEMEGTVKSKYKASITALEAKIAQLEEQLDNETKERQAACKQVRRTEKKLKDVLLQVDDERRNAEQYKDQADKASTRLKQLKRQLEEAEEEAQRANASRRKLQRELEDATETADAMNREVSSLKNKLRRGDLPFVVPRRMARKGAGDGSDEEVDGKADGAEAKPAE

Tests used:
[1] = molecular target: purified SPC25 (UniProt Q9HBM1); assay: pull-down; in vitro GST pull-down with two purified proteins from a prokaryotic expression system; both purified
[2] = molecular target: purified SPC25 (UniProt Q9HBM1); assay: cross-linking; in vitro crosslinking of purified SPC25, MYH9 and RIOK1 with disuccinimidyl suberate (DSS), rising SPC25 levels, Western blotting with anti-SPC25; both purified
[3] = molecular target: full-length (FL) Flag-tagged SPC25 (UniProt Q9HBM1); assay: co-IP; HEK293FT cells transfected with SPC25-Flag and MYH9-Myc constructs or their truncations; IP with Flag-beads (SPC25 truncations) or Myc-beads (MYH9 truncations)
[4] = molecular target: spindle pole body component 25 (SPC25), endogenous (human (endogenous in OVCAR8)) (UniProt Q9HBM1); assay: co-IP; endogenous SPC25 and MYH9, OVCAR8 cells
[5] = molecular target: full-length (FL) Flag-tagged SPC25 (UniProt Q9HBM1); assay: co-IP; exogenous SPC25 and RIOK1 (Figure S6L); cells and tags not given
[6] = molecular target: purified SPC25 (UniProt Q9HBM1); assay: pull-down; in vitro GST pull-down with two purified proteins from a prokaryotic expression system; both purified; remark: listed apart in the source
[7] = molecular target: spindle pole body component 25 (SPC25), endogenous (human (endogenous in OVCAR8)) (UniProt Q9HBM1); assay: co-IP; endogenous SPC25 and RIOK1 (Figure S6K); cells not given
[8] = molecular target: spindle pole body component 25 (SPC25), endogenous (human (endogenous in OVCAR8)) (UniProt Q9HBM1); assay: proximity ligation; PLA of SPC25 and RIOK1 in OVCAR8 cells treated with control peptide or CBP1; foci per cell
[9] = molecular target: spindle pole body component 25 (SPC25), endogenous (human (endogenous in OVCAR8)) (UniProt Q9HBM1); assay: co-IP; endogenous RIOK1 with SPC25 or MYH9 in OVCAR8 cells treated with the indicated peptides (CBP1 at 5 µM)

Molecule: MYH9-Myc (from UniProt P35579 1-1960)
- binding [3]: binds

Molecule: MYH9, also called nonmuscle myosin IIA (NMIIA), endogenous (from UniProt P35579 1-1960)
- binding [4]: binds

B2: purified RIOK1 (enzyme, UniProt Q9BRS2 1-568)
chain: MDYRRLLMSRVVPGQFDDADSSDSENRDLKTVKEKDDILFEDLQDNVNENGEGEIEDEEEEGYDDDDDDWDWDEGVGKLAKGYVWNGGSNPQANRQTSDSSSAKMSTPADKVLRKFENKINLDKLNVTDSVINKVTEKSRQKEADMYRIKDKADRATVEQVLDPRTRMILFKMLTRGIITEINGCISTGKEANVYHASTANGESRAIKIYKTSILVFKDRDKYVSGEFRFRHGYCKGNPRKMVKTWAEKEMRNLIRLNTAEIPCPEPIMLRSHVLVMSFIGKDDMPAPLLKNVQLSESKARELYLQVIQYMRRMYQDARLVHADLSEFNMLYHGGGVYIIDVSQSVEHDHPHALEFLRKDCANVNDFFMRHSVAVMTVRELFEFVTDPSITHENMDAYLSKAMEIASQRTKEERSSQDHVDEEVFKRAYIPRTLNEVKNYERDMDIIMKLKEEDMAMNAQQDNILYQTVTGLKKDLSGVQKVPALLENQVEERTCSDSEDIGSSECSDTDSEEQGDHARPKKHTTDPDIDKKERKKMVKEAQREKRKNKIPKHVKKRKEKTAKTKKGK
- binding [2]: binds
- binding [6]: binds

B3: RIOK1, endogenous (enzyme, UniProt Q9BRS2 1-568)
chain: B2 chain
- binding [7]: binds
- binding [8]: binds
- binding [9]: binds

Next, values leading:

- binding [1]: binds
- binding [2]: binds
Molecule: purified MYH9 (from UniProt P35579 1-1960)

- binding [5]: binds
B1: exogenous RIOK1 (exogenous protein IP assay) (enzyme, UniProt Q9BRS2 1-568)
chain: B2 chain
